Record: PubChem BioAssay AID1259254 (NCATS, 2017)
In all, the deposit lists about 59,000 reagents; this is a part drawn at random. Of all reagents, about 1,550 (2.6%) got an active call. 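G2 share is only a proxy for re-replication; each gene was hit by three separate siRNAs, and active genes were retested.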 A number with no mark means an inactive call. The numbers tell different reagents against one gene apart. Not all columns of the deposit are shown. Not given: the amount of reagent.

Aim: 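Finding genes that stop cells copying their DNA twice in one cycle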 (primary screen)
Cell system: human HCT116 colorectal cancer cells
Reagents: single siRNA against human genes
Time to read-out: 3 days
Measurement: 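Imaged Hoechst DNA stain sorts each cell into a cycle phase by DNA amount; per plate, G2 fraction set to 0% for non-targeting and 100% for GMNN siRNA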
Reading the numbers: G2 robust z-score and G2 cells, % of GMNN control: higher = more G2 cells, more excess DNA replication
Active means: 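An siRNA counts as active if its G2 robust z-score lies at least 5 MADs above the screen median; here such calls match roughly 38% of GMNN control or more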

TMEM147 (transmembrane protein 147) #1
- G2 robust z-score: -0.754
- G2 cells, % of GMNN control: -2.34

TMEM147 (transmembrane protein 147) #2
- G2 robust z-score: 0.656
- G2 cells, % of GMNN control: 7.58

TMEM147 (transmembrane protein 147) #3
- G2 robust z-score: 1.23
- G2 cells, % of GMNN control: 11.6

GSE1 (Gse1 coiled-coil protein) #1
- G2 robust z-score: -0.944
- G2 cells, % of GMNN control: -3.68

GSE1 (Gse1 coiled-coil protein) #2
- G2 robust z-score: 1.58
- G2 cells, % of GMNN control: 14.1

GSE1 (Gse1 coiled-coil protein) #3
- G2 robust z-score: 0.826
- G2 cells, % of GMNN control: 8.78

SCGB1D1 (secretoglobin family 1D member 1) #1
- G2 robust z-score: 0.00391
- G2 cells, % of GMNN control: 2.99

SCGB1D1 (secretoglobin family 1D member 1) #2
- G2 robust z-score: -0.378
- G2 cells, % of GMNN control: 0.306

SCGB1D1 (secretoglobin family 1D member 1) #3
- G2 robust z-score: -0.174
- G2 cells, % of GMNN control: 1.74

TUBA1B (tubulin alpha 1b) #1
- G2 robust z-score: 4.37
- G2 cells, % of GMNN control: 33.7

TUBA1B (tubulin alpha 1b) #2
- G2 robust z-score: 2.82
- G2 cells, % of GMNN control: 22.8

TUBA1B (tubulin alpha 1b) #3
- G2 robust z-score: 1.78
- G2 cells, % of GMNN control: 15.5

Taken from above:
Value for TUBA1B (tubulin alpha 1b) #1 under “G2 cells, % of GMNN control”: 33.7
For “G2 robust z-score”, TMEM147 (transmembrane protein 147) #1 reads -0.754
